Values of other authors, collected in patent publication US10912819B2, “Neuroprotective peptides derived from activity-dependent neuroprotective protein for treatment of neurological diseases” (priority 2016, dated 2021).
For at least one compound, name, drawing or mass did not settle the structure.

Assays:
rats = settings: cited from earlier work
[1] = 0.05% in water; cited from earlier work

Question: For `CC(C)(O)C(Cl)(Cl)Cl` [chlorobutanol, trichloro-2-methyl-2-propanol], which “acute oral LD50” value (rats) is on record?
Answer: The value was 510 mg/kg.

Question: And the antimicrobial activity [1]?
Answer: The antimicrobial activity was “retains antimicrobial activity”.
